Here are results for 64 molecules from PubChem BioAssay AID493014 (National Center for Advancing Translational Sciences (NCATS), 2011).

This is one part of the list. The main result of the screen is listed elsewhere. These columns were measured beside it and carry no call. Most of these compounds were active or inconclusive in the main read-out, so they are no random draw. Words in brackets tell the shape of the fitted curve; partial curves, single points and poor fits give uncertain potencies.

The experiment is described as follows: qHTS Assay to Find Inhibitors of Chronic Active B-Cell Receptor Signaling. The settings on record: ABC-DLBCL IkBa-CBG/CBR reporter, luminescence ratio (green luciferase fused to IkBa over red control in TMD8 lymphoma cells), 4 h. In short, it runs like this: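 Compounds up to 46 uM were incubated four hours with TMD8 cells whose green CBG68 luciferase is fused to IkappaBalpha; red CBR luminescence normalised the signal, and concentration-effect curves were fitted to fusion, red and ratio data.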

The mark [1] stands for this setting: measured here: CBR red luminescence, cell number.
The mark [2] stands for this setting: measured here: IkBa-CBG green luminescence.

For the molecule `CCCCCc1ccc(C(=O)CCCC)c(=S)[nH]1`, under setting [1], the AC50 is 14.1 µM [rising, partial curve, poor fit]. Same read-out and setting: in the case of `CCS(=O)(=O)N1CCN(C2Cc3ccccc3C2)CC1` it was 14.6 µM [rising, partial curve, poor fit]; in that of `Cc1c(OCC(=O)N2CCC(C(=O)O)CC2)ccc2c1oc(=O)c1ccccc12`, 5.01 µM [falling, partial curve]. The same measure, in the same setting: then `Nc1n[nH]c(N)c1N=Nc1cccc(F)c1`, with 4.61 µM [rising, single point]; and `CC1CCN(C(=O)COC(=O)/C=C/c2ccc([N+](=O)[O-])cc2)CC1`, with 6.51 µM [rising, single point]. Still for that read-out and setting: then `Oc1ccccc1-n1nc2ccc3nonc3c2n1`, with 11.2 µM [rising, single point]; and `COc1cc2c(C(=O)N(C)c3ccc(F)cc3)cn(C)c(=O)c2cc1OC`, with 35.5 µM [falling, partial curve, poor fit]. Turning to `Cn1nc(C(F)(F)F)c(/C=N/OC(=O)c2ccccc2)c1Sc1ccc(Cl)cc1`, under setting [2], the AC50 is 9.2 µM [falling, partial curve]. For `O=C(COC(=O)C1=COCCO1)Nc1cc(S(=O)(=O)N2CCCCC2)ccc1Cl`, the AC50 under setting [1] was 15.8 µM [falling, partial curve]. On the same count and under the same terms, then `Cc1ccsc1/C=C(\C#N)C(=O)NC1CCS(=O)(=O)C1` (stereo not drawn), with 35.5 µM [rising, single point]. As to `CCCCN1CC(=O)N2[C@H]3c4cc(Cl)ccc4OC[C@@H]3[C@H](c3ccccc3)[C@]2(C)C1=O`, the AC50 was 29.1 µM [falling, single point] under setting [1] and 16.4 µM [rising, partial curve, poor fit] under setting [2]. Regarding `CC(=O)Nc1ccc(CNc2ncnc3ccc(-c4c(C)noc4C)cc23)cc1`, the AC50 under setting [1] was 10.3 µM [rising, partial curve]. The same measure, in the same setting: then `O=C(NNC(=O)c1cccc(C(F)(F)F)c1)c1ccncc1`, with 12.6 µM [falling, single point].

With `CCCCc1c(O)nc(SCC(=O)c2ccccc2)[nH]c1=O`, under setting [1], the AC50 was 6.51 µM [rising, single point].

Regarding `COc1ccc(N2CCN(c3cc(=O)n(Cc4ccc(F)cc4)c(=O)[nH]3)CC2)cc1`, under setting [1], the AC50 was 32.6 µM [rising, single point].

As to `c1ccc2c(C3=NNC(=NC4CCCCC4)SC3)c[nH]c2c1`, the AC50 under setting [1] is 1.16 µM [falling, partial curve, poor fit]. Same read-out and setting: in the case of `COCC(=O)n1nc(-c2ccc(C)cc2)nc1NCc1ccc(F)cc1` it was 5.01 µM [rising, partial curve]. The same measure, in the same setting: in the case of `Cc1nc(-c2ccc(Cl)cc2)sc1C1(C)CC(c2c(Cl)cccc2Cl)=NO1` (stereo not drawn) it was 17.8 µM [rising, single point]; in that of `CN(CC(=O)Nc1ccccc1Cl)CC(=O)Nc1c(F)cccc1F`, 35.5 µM [rising, single point]. Same read-out and setting: then `O=c1cc(N2CCOCC2)[nH]c(=O)n1Cc1ccc(F)cc1`, with 0.92 µM [falling, partial curve, poor fit]; and `Cc1cc(NC(=O)CSc2nc(CCC3CCCC3)nc3ccccc23)no1`, with 16.4 µM [falling, partial curve, poor fit]. On to `CCOC(=O)C1CCN(C(=O)COc2cc(C)c(Br)c(C)c2)CC1`, for which the AC50 under setting [1] was 0.891 µM [falling, full curve].

As for `C=CCn1c(C)csc1=Nc1ccc(C(C)=O)cc1`, the AC50 under setting [1] was 2.82 µM [rising, full curve].

As for `COc1ccc(C2C(CC(=O)O)=C(O)C(=O)N2c2ccccc2)cc1` (stereo not drawn), the AC50 under setting [1] was 7.08 µM [falling, partial curve, poor fit]. Same read-out and setting: in the case of `O=C(NC1CCCCCCC1)c1ccc2c(c1)OCO2` it was 10.3 µM [falling, partial curve, poor fit]; in that of `Cc1ccc2c(c1)/C(=C/c1ccc(F)cc1)C(=O)N2`, 35.5 µM [falling, single point]; in that of `C=CCOc1cccc(C2C(C(=O)c3ccc(C)o3)=C(O)C(=O)N2c2nccs2)c1` (stereo not drawn), 6.31 µM [falling, single point]. The same measure, in the same setting: then `O=C(CCS(=O)(=O)c1ccccc1)Nc1nccs1`, with 23.1 µM [falling, single point]; and `O=C(COC(=O)/C=C/c1ccc(OC(F)F)cc1)NC(=O)NCc1ccccc1`, with 29.1 µM [rising, single point]; and `O=S(=O)(c1cccs1)N1CCC(CO)(Cc2ccc(Cl)cc2)CC1`, with 35.5 µM [falling, partial curve, poor fit]. Still for that read-out and setting: in the case of `O=[N+]([O-])c1cc(C(F)(F)F)ccc1NCCc1c[nH]c2ccc(O)cc12` it was 2.91 µM [rising, partial curve, poor fit]; in that of `Cn1cc(Cl)c(C(=O)NNC(=S)Nc2cccc(Cl)c2)n1`, 7.94 µM [falling, partial curve]. On to `Cc1cccc(N2C(=O)CC(Sc3ccccc3C(=O)O)C2=O)c1` (stereo not drawn), for which the concentration at half-maximal activity (AC50) under setting [1] was 11.6 µM [falling, partial curve, poor fit]. The same measure, in the same setting: in the case of `COc1ccc(C(=O)/C=C/Nc2cc(C)ccn2)cc1` it was 8.91 µM [falling, partial curve]. On to `C(=N\Nc1nc2ccccc2[nH]1)/c1ccc2c(c1)OCO2`, for which the AC50 under setting [1] is 10 µM [falling, partial curve]. Same read-out and setting: in the case of `COc1ccccc1C(=O)COC(=O)c1cnc(C)cn1` it was 18.4 µM [rising, partial curve, poor fit].

Turning to `COc1ccc(C(=O)/C=C/Nc2ccc(S(=O)(=O)Nc3nc(C)cc(C)n3)cc2)c(OC)c1`, the AC50 runs as follows: under setting [1], 10 µM [rising, partial curve, poor fit]; under setting [2], 10 µM [falling, partial curve, poor fit].

Regarding `CCOC(=O)N1CCN(C(=O)COc2cccc3c2CCN(Cc2ccccc2F)C3=O)CC1`, the AC50 under setting [1] is 16.4 µM [falling, single point]. In the case of `O=C(CCCN1C(=O)/C(=C\c2cccs2)SC1=S)Nc1ccccn1`, the AC50 under setting [1] was 12.6 µM [falling, partial curve]. The same measure, in the same setting: then `COc1cc(N/N=C/c2ccc(N(C)C)cc2)ncn1`, with 3.55 µM [rising, partial curve, poor fit]; and `Cc1ccc(C(=O)CC(=O)c2cccc(F)c2)c(O)c1`, with 4.11 µM [rising, full curve, poor fit].

Consider `CCOC(=O)c1csc(NC(=O)c2ccc3c(c2)OCCO3)n1`, for which the half-maximal activity concentration (AC50) under setting [1] was 0.891 µM [falling, full curve, poor fit]. Same read-out and setting: then `CCN(CC(=O)Nc1ccccc1OC)C(=O)CN1C(=O)NC(C)(c2ccccc2)C1=O` (stereo not drawn), with 6.51 µM [rising, single point]; and `COc1cc2ccccc2cc1C(=O)Nc1cccnc1`, with 32.6 µM [falling, single point]; and `CCN(CC)c1ccc(NC(=O)C2CCCC2)cc1`, with 0.501 µM [rising, partial curve, poor fit]. Still for that read-out and setting: then `Cc1ccc(C)c(-c2nc3ccc(N)cc3[nH]2)c1`, with 10.3 µM [falling, partial curve, poor fit]. For `C/C(CC(=O)Nc1ccc2c(c1)OCCO2)=N\NC(=O)c1cccc(O)c1`, under setting [1], the AC50 is 14.1 µM [falling, partial curve]. Still for that read-out and setting: then `COc1cccc(C(=O)OCC(=O)c2ccc(Br)s2)c1`, with 31.6 µM [falling, single point]; and `CCSc1nnc(NC(=O)c2ccc(C)o2)s1`, with 13 µM [falling, partial curve, poor fit].

Consider `O=C(COc1ccc(Cl)cc1)Nc1ccc2oc(=O)ccc2c1`, for which the AC50 under setting [1] was 0.794 µM [falling, full curve, poor fit].

`COc1ccc(CNC(=O)CN2C(=O)COc3ccc(S(=O)(=O)N4CCOCC4)cc32)cc1`: under setting [1], the AC50 was 3.16 µM [falling, partial curve, poor fit]. On the same count and under the same terms, then `CC(=O)c1ccc(NC(=O)CSc2cn[nH]n2)cc1`, with 10 µM [falling, partial curve]. In the case of `COc1ccc(N/C=C/C(=O)c2cc(OC)c(OC)c(OC)c2)cc1`, the AC50 by setting is: under setting [1], 15.8 µM [rising, partial curve]; under setting [2], 20 µM [falling, partial curve]. As to `CCc1ccccc1NC(=O)c1cc(-c2ccc3c(c2)OCO3)on1`, the AC50 under setting [1] was 1.12 µM [falling, partial curve, poor fit].

For the molecule `O=C(CN1CCN(c2ccc(Cl)cc2)CC1)c1ccccc1`, under setting [1], the AC50 is 35.5 µM [falling, single point].

Regarding `OC(CNCc1ccc(-c2ccccc2)cc1)c1ccccc1` (stereo not drawn), the AC50 by setting is: under setting [1], 35.5 µM [rising, single point]; under setting [2], 25.1 µM [falling, partial curve, poor fit]. With `CN(C)c1cccc(C(=O)NC2CCCc3ccccc32)c1` (stereo not drawn), under setting [1], the AC50 was 1.58 µM [falling, full curve, poor fit]. On the same count and under the same terms, in the case of `O=C(/C=C/c1cccc(F)c1)c1ccc(N2CCOCC2)cc1` it was 35.5 µM [rising, single point]; in that of `CC(C)NC(=O)c1cc2nc(-c3ccco3)cc(C(F)(F)F)n2n1`, 3.26 µM [rising, full curve, poor fit]; in that of `O=C(NCCc1c[nH]c2ccccc12)Nc1cccc2ccccc12`, 2.31 µM [falling, partial curve]. Still for that read-out and setting: in the case of `CC(C)OC(=O)CSc1nnc(-c2ccccc2)n1N` it was 25.9 µM [falling, single point].

For the molecule `CCOC(=O)CNC(=O)c1ccc2[nH]c3ccccc3c2c1`, the AC50 under setting [2] was 8.91 µM [rising, partial curve, poor fit]. Take `CCCn1c(N)c(N(C)C)c(=O)n(CC(=O)Nc2ccc(OC(F)(F)F)cc2)c1=O`: the AC50 under setting [1] is 4.11 µM [rising, full curve, poor fit]. As to `COc1cc([N+](=O)[O-])cc(/C=N/NC(=O)CSc2ccccn2)c1O`, the half-maximal activity concentration (AC50) under setting [1] was 7.08 µM [falling, full curve, poor fit].
